The supplement of paper PMC11732987, “Enantioselective OTUD7B fragment discovery through chemoproteomics screening and high-throughput optimisation” (Communications Chemistry, 2025)
The list shows a part of the results. The data scatter; read single values as rough.

The chains behind the UniProt entries cited, without tags or fusion partners. Where a name states a change or a piece, a line headed by the entry shows the natural chain unless it says otherwise. Residues count along the entry.
UniProt O75116, 239-263: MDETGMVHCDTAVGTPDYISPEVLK
UniProt P04843: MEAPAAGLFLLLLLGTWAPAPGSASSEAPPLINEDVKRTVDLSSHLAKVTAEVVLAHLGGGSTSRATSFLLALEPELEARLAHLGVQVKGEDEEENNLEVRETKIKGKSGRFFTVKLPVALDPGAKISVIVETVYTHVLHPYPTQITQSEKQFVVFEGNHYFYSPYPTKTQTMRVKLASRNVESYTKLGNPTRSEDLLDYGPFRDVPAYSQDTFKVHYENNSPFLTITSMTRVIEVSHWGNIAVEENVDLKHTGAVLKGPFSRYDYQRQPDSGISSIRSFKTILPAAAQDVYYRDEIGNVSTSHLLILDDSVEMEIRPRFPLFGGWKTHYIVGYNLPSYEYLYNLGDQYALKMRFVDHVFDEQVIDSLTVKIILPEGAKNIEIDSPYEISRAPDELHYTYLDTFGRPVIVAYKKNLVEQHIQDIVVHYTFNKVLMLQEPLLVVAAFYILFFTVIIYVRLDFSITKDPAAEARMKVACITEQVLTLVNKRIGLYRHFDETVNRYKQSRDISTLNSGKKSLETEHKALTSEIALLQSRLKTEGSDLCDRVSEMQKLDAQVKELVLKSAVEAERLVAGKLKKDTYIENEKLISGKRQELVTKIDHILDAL
UniProt Q6PCB5: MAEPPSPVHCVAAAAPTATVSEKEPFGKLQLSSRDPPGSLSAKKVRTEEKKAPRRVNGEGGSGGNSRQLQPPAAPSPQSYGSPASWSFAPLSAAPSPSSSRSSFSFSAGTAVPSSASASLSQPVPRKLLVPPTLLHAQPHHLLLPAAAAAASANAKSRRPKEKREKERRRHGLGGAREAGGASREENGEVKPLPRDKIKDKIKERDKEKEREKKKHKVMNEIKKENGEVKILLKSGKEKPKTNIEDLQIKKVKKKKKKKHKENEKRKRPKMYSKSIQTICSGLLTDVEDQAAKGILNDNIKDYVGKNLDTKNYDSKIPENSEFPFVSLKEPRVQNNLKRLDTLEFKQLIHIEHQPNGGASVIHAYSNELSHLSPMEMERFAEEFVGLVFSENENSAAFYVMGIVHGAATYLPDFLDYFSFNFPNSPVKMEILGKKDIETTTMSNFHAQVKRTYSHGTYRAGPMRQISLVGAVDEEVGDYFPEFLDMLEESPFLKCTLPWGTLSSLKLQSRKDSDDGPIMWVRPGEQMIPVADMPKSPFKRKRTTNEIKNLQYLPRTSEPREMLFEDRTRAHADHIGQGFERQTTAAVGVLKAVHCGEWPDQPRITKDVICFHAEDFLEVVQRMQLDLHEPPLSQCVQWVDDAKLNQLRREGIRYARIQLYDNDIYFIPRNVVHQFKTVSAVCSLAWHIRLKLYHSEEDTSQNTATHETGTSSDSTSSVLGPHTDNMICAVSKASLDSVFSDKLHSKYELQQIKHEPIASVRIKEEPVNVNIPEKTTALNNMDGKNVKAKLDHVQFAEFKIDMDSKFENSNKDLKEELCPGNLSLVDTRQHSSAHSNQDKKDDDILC
UniProt Q9Y508: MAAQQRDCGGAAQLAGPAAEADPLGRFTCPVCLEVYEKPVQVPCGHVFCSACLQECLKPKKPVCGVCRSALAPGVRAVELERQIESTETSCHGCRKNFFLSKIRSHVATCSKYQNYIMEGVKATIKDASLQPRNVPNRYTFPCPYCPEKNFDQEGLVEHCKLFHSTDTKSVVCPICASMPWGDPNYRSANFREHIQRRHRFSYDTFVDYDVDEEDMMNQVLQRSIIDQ
UniProt Q86VV8: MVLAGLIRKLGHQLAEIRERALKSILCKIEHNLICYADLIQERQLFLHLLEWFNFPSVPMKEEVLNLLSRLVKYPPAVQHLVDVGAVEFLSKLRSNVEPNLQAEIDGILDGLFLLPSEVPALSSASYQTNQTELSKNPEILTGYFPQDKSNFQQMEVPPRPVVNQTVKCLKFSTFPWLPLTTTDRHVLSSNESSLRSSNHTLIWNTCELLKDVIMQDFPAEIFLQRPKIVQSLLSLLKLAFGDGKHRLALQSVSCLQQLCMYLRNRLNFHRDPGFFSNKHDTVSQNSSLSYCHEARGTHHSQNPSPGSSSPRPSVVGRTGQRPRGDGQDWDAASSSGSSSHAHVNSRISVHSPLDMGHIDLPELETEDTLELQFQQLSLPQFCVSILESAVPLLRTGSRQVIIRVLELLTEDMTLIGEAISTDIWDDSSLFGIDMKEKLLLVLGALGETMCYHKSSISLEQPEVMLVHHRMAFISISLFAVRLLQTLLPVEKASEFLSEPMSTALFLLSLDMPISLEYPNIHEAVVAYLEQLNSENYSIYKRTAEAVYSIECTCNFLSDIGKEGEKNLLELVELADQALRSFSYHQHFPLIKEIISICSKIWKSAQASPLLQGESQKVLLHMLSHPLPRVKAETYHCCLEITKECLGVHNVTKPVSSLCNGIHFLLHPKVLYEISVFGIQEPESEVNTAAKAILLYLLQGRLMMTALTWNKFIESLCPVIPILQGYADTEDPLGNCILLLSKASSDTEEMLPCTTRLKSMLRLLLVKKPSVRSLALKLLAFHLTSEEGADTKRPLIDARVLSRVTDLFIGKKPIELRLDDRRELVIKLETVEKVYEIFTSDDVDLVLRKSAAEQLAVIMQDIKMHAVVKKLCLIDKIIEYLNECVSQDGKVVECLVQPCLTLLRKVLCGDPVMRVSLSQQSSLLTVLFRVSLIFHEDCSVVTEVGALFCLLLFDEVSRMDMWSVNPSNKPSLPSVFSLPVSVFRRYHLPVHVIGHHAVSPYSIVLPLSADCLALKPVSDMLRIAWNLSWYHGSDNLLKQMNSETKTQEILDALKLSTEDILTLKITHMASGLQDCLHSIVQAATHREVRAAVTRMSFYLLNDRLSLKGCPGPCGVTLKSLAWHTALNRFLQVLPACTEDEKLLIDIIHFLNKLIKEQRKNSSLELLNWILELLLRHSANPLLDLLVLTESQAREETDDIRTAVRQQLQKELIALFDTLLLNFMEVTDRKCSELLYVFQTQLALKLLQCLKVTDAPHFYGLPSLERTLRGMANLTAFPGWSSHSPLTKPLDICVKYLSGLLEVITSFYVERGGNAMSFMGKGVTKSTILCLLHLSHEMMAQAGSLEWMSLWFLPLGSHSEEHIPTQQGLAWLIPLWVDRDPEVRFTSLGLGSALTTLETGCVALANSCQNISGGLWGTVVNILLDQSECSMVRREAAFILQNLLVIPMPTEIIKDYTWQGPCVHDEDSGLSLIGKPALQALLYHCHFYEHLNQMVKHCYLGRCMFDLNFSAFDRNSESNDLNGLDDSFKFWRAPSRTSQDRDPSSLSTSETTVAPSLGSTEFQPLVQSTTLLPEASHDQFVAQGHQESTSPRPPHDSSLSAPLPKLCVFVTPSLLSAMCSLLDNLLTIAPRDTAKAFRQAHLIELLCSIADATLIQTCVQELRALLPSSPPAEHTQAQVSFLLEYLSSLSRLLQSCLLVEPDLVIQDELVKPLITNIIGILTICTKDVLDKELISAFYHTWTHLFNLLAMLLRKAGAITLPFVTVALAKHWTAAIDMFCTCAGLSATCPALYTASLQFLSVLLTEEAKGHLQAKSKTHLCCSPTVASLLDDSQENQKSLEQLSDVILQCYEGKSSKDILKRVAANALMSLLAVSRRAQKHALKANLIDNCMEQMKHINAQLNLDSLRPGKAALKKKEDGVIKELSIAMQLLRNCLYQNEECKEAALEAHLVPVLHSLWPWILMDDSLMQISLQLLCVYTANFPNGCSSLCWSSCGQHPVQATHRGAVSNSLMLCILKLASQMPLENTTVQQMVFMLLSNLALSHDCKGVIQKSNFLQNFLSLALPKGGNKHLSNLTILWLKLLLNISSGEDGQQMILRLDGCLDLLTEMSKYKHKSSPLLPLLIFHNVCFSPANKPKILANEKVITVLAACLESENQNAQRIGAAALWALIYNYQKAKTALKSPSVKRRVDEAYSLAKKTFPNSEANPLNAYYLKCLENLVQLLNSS
UniProt Q96BU1, 146-173: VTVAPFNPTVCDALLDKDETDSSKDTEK
UniProt Q9HA92: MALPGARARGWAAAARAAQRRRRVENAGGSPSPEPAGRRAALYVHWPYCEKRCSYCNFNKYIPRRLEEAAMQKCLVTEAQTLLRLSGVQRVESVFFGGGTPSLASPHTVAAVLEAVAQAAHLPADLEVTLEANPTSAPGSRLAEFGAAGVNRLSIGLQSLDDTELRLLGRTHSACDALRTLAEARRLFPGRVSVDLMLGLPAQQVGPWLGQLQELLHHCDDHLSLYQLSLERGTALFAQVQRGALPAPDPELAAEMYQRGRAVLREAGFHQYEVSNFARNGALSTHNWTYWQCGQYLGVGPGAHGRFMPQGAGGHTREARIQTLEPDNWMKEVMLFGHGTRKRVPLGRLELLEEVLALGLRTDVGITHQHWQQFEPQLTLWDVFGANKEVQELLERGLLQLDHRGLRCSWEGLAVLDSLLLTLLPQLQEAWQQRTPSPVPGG
UniProt Q96A37: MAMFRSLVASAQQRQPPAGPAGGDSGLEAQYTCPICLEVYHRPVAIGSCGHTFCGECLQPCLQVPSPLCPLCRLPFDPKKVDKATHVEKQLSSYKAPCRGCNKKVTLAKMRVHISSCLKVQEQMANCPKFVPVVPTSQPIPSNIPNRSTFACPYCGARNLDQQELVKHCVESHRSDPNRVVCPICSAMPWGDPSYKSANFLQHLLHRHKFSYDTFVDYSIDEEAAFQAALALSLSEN
UniProt Q9BUL9, 9-39: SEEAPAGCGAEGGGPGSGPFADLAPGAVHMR
UniProt Q96LT9: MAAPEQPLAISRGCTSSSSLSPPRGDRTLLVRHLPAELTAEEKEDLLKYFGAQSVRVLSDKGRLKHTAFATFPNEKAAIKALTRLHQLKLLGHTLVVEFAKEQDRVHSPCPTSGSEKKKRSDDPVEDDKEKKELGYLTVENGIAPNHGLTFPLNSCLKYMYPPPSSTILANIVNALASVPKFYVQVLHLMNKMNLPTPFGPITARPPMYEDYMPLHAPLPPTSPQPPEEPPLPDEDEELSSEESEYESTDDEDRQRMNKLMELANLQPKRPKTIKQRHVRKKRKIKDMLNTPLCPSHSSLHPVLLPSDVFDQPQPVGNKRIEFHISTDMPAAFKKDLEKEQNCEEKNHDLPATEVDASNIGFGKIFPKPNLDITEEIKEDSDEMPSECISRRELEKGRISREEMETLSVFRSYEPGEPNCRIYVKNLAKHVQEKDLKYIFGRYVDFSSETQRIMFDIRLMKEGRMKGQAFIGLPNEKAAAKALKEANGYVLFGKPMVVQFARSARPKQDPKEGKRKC
UniProt Q9UBS8: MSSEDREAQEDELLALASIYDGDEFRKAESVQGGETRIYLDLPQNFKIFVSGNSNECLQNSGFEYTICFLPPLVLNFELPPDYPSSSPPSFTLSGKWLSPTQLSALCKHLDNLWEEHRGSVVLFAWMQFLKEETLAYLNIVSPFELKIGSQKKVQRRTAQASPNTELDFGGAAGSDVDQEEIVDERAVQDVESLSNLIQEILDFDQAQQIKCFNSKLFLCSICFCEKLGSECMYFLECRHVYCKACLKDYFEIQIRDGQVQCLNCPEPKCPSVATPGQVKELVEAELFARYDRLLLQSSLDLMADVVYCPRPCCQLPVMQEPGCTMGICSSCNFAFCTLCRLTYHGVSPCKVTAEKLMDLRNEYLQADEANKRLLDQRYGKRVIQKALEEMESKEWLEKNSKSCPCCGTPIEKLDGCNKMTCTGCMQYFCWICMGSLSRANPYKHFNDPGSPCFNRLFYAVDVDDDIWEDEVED
UniProt P78345: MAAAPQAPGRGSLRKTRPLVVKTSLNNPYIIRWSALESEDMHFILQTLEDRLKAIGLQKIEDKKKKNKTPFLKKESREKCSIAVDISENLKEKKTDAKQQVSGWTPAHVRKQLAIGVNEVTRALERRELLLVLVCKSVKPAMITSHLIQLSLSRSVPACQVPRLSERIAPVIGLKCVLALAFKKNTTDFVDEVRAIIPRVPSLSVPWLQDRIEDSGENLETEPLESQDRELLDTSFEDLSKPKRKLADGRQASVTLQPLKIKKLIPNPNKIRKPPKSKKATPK
UniProt Q9NTJ5: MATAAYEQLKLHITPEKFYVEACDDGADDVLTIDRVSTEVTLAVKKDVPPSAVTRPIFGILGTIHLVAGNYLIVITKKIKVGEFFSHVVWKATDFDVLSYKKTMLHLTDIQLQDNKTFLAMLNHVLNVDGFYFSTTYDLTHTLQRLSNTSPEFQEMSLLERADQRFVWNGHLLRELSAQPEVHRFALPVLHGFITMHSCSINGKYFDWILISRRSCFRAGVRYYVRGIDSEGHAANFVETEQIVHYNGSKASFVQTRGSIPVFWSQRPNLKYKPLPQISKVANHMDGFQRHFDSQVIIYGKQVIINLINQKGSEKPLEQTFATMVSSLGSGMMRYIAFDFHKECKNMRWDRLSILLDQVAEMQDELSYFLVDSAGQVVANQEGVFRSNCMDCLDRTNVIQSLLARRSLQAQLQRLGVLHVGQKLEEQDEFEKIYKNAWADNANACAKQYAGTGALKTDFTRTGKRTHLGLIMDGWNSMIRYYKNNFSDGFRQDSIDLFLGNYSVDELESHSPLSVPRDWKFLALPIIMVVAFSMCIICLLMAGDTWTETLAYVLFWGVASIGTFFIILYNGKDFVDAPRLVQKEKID

Key:
[1] = compound: ClCC(=O)N[C@@H]1CCCc2ccccc12; assay: log2 mean competition ratio of IA-DTB cysteine labelling (DMSO/compound) (log2 ratio); higher = stronger cysteine engagement by compound; conditions: treatment time: 4 h, cell line lysate: HEK293T
Description: (§1)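 IA-DTB competitive cysteine chemoproteomics in HEK293T RIPA lysate. Lysates were treated with compound 29 or 30 at 50 or 200 µM for 4 h, then IA-DTB (500 µM, 1 h), trypsin-digested, NeutrAvidin-enriched and analysed by diaPASEF. Competition ratio = intensity DMSO / intensity compound (n=4 treated, n=64 DMSO); binding: mean log2 CR ≥ 1 and p ≤ 0.05 plus QC filters. Target is the cysteine site.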

[2] = compound: ClCC(=O)N[C@H]1CCCc2ccccc12; assay: as above; conditions: treatment time: 4 h, cell line lysate: HEK293T
Description: as §1

Target	log2 mean competition ratio ([1]; 50 µM)	log2 mean competition ratio ([1]; 200 µM)	log2 mean competition ratio ([2]; 50 µM)	log2 mean competition ratio ([2]; 200 µM)
ROCK2 C247 (UniProt O75116)	-0.154	-0.198	0.148	-0.304
RPN1 C545 (UniProt P04843)	-0.142	0.0518	-0.131	0.0596
RSBN1L C818 (UniProt Q6PCB5)	-0.0604	0.00129	0.0617	-0.151
SACS C395 (UniProt Q9NZJ4)	0.16	0.248	0.477	0.145
RNF114 C110 (UniProt Q9Y508)	0.0392	-0.0261	-0.113	0.0351
ROR1 C848	0.313	0.0213	0.469	-0.0311
RTTN C753 (UniProt Q86VV8)	0.0907	0.212	0.28	0.183
ROCK2 C649 (UniProt O75116)	-0.12	0.0936	-0.751	0.101
S100PBP C156 (UniProt Q96BU1)	-0.117	-0.579	0.03	-0.174
RSBN1L C595 (UniProt Q6PCB5)	0.0347	-0.126	0.0335	-0.0596
RSAD1 C74 (UniProt Q9HA92)	0.413	0.354	0.266	0.0828
RPS3 C119	0.418	-0.548	0.827	-0.319
RNF166 C127 (UniProt Q96A37)	-0.264	-0.0327	-0.367	-0.0274
SAC3D1 C371 (UniProt A6NKF1)	0.418	-0.0969	-0.0915	-0.263
RPP25 C16 (UniProt Q9BUL9)	-0.372	-0.255	-0.147	0.117
RNPC3 C420 (UniProt Q96LT9)	-0.111	0.482	0.333	0.177
RNF14 C453 (UniProt Q9UBS8)	-0.0795	-0.122	-0.296	-0.0421
RPP38 C80 (UniProt P78345)	0.113	-0.0151	0.0734	0.0285
RNF220 C382 (UniProt Q5VTB9)	-0.0834	-0.278	0.261	-0.107
RPS5 C172 (UniProt P46782)	-0.0104	-0.473	0.00565	-0.308
RPL7A C199 (UniProt P62424)	0.0472	-0.214	-0.412	-0.259
SACM1L C445 (UniProt Q9NTJ5)	-0.0176	-0.121	-0.203	-0.0941

A different layout for part of the listing above:

| Target | log2 mean competition ratio ([1]; 50 µM) | log2 mean competition ratio ([1]; 200 µM) | log2 mean competition ratio ([2]; 50 µM) | log2 mean competition ratio ([2]; 200 µM) |
| --- | --- | --- | --- | --- |
| SACS C395 (UniProt Q9NZJ4) | 0.16 | 0.248 | 0.477 | 0.145 |
| RNF114 C110 (UniProt Q9Y508) | 0.0392 | -0.0261 | -0.113 | 0.0351 |
| ROR1 C848 | 0.313 | 0.0213 | 0.469 | -0.0311 |
| RTTN C753 (UniProt Q86VV8) | 0.0907 | 0.212 | 0.28 | 0.183 |
